Our source for the binding values is publication doi:10.1101/354316.

Sequences of proteins named here, by UniProt entry; tags and fusion partners are left off.
UniProt Q96PX9: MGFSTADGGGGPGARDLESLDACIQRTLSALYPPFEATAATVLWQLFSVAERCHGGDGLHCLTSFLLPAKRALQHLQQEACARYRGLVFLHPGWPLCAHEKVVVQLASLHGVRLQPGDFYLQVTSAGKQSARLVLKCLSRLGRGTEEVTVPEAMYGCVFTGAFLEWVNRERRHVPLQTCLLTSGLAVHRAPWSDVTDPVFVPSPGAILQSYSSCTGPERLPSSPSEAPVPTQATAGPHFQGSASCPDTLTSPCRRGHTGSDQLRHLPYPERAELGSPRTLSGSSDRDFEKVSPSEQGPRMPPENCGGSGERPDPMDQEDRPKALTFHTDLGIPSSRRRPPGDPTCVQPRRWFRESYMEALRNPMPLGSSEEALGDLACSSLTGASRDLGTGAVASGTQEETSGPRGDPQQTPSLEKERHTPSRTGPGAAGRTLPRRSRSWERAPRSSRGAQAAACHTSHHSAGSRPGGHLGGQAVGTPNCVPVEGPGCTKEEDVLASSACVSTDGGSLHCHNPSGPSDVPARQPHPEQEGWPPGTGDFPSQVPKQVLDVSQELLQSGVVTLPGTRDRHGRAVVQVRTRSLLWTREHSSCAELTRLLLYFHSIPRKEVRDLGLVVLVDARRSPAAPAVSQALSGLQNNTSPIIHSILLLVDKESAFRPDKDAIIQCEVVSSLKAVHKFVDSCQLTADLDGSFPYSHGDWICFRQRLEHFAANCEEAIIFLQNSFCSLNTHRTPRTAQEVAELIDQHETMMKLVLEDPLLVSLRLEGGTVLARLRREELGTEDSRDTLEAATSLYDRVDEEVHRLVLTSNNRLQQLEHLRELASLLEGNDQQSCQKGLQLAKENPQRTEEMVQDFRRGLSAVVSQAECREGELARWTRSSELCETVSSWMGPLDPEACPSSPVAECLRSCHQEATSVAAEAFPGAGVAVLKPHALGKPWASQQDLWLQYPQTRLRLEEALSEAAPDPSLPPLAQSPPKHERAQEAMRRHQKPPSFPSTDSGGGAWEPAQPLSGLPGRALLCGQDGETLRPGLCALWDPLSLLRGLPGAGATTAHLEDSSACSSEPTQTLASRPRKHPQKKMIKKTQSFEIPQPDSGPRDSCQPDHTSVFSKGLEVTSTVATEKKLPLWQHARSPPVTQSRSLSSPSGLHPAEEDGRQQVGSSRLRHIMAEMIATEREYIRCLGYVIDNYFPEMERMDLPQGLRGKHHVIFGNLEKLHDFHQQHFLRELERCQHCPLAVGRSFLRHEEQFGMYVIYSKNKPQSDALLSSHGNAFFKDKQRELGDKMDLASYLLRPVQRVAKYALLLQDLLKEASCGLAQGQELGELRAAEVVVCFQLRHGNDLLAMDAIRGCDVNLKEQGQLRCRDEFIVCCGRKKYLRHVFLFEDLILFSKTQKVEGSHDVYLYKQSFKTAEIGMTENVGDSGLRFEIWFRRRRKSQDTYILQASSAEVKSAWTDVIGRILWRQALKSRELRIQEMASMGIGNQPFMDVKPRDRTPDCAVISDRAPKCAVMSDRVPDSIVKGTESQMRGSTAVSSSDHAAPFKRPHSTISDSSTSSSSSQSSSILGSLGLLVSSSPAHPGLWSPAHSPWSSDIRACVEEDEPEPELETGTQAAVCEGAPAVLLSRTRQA
UniProt O15085: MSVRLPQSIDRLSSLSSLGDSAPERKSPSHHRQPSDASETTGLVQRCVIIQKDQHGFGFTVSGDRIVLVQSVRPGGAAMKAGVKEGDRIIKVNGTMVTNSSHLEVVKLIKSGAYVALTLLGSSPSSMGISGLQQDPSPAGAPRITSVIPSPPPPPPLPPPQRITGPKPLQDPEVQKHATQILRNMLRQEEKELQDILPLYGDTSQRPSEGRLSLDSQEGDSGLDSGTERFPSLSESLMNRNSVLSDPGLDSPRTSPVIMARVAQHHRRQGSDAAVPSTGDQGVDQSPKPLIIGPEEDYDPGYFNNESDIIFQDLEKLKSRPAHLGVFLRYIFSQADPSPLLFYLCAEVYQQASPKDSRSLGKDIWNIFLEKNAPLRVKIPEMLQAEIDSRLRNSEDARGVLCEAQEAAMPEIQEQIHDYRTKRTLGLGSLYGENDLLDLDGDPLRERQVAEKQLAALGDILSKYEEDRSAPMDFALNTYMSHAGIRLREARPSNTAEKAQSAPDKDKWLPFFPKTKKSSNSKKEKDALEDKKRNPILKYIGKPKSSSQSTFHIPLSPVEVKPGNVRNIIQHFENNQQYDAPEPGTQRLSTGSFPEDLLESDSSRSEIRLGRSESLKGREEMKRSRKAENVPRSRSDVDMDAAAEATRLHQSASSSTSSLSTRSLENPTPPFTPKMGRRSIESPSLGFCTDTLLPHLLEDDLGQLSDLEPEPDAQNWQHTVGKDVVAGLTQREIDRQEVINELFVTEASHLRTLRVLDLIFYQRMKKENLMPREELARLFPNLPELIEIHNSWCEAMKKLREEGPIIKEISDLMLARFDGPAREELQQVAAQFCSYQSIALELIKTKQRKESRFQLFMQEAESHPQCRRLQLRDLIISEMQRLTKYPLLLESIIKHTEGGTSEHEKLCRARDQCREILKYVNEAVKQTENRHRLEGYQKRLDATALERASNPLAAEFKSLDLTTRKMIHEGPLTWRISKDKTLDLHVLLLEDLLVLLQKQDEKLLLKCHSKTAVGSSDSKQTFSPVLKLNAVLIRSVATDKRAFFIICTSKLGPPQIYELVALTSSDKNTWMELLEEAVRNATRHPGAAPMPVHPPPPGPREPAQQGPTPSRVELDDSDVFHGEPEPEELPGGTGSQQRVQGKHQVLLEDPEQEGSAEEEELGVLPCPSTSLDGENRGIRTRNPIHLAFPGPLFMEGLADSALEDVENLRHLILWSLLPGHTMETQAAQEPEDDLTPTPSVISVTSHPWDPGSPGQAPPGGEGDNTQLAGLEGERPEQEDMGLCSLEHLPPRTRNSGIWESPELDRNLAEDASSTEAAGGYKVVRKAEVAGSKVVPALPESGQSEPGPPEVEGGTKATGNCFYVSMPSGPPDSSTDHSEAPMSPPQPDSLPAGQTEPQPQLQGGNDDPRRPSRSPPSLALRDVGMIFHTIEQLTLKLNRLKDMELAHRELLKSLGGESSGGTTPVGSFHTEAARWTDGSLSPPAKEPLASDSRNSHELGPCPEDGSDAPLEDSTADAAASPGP
UniProt Q96N67: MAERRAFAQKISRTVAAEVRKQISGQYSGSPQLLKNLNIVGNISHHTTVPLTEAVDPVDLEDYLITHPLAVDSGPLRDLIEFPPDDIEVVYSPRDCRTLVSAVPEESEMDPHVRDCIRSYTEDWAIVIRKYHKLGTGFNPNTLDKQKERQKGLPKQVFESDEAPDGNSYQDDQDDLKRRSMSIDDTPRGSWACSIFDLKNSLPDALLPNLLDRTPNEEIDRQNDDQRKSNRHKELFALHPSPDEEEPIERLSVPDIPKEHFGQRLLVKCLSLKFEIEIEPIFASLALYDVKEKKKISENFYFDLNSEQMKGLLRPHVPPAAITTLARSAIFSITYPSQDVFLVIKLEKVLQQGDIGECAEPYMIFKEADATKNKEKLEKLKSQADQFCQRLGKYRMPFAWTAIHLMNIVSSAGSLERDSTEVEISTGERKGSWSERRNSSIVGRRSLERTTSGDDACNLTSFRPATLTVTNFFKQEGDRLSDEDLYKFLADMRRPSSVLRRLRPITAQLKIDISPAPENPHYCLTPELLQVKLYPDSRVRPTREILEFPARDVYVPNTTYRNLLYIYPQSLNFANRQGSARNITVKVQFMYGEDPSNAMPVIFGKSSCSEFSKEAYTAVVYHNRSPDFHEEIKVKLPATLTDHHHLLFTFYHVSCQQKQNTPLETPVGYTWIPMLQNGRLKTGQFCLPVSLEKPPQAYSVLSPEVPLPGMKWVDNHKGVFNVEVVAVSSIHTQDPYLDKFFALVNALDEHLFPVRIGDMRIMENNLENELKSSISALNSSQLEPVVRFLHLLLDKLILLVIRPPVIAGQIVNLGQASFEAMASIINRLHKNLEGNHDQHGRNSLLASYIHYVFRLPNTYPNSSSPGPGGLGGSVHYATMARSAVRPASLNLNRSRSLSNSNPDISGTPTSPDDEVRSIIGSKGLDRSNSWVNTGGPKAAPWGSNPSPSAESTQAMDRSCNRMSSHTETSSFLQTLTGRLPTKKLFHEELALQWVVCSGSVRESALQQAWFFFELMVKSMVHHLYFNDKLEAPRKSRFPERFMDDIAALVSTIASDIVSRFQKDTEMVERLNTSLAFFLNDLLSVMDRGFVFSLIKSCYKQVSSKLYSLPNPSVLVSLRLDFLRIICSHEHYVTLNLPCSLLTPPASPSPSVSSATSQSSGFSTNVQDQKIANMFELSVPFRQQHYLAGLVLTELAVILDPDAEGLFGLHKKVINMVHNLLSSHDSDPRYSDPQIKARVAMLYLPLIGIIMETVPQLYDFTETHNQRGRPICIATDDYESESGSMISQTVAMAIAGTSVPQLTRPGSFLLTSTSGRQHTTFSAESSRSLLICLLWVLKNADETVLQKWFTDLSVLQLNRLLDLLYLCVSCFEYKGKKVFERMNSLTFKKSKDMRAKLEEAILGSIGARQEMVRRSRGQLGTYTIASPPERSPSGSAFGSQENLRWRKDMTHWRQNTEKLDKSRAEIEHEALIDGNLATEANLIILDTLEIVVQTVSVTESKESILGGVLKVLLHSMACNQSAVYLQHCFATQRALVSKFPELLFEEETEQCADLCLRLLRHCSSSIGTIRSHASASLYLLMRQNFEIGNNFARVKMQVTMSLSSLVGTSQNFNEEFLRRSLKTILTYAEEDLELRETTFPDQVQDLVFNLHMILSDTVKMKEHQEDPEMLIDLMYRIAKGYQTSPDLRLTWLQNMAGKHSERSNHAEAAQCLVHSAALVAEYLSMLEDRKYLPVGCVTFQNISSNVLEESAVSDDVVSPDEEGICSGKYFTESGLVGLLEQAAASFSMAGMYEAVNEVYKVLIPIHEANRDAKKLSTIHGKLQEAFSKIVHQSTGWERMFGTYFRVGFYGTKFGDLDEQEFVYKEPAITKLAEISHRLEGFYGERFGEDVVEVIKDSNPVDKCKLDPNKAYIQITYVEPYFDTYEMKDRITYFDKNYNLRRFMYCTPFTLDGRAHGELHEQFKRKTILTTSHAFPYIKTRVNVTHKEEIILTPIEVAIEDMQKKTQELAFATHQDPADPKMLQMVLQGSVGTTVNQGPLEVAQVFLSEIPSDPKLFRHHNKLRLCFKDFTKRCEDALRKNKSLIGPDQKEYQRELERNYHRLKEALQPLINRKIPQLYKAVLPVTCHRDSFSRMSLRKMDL

What all share (assay): co-IP
The target of experiment [1] is T1, FLAG-tagged LRCH2 full-length (human) (UniProt Q5VUJ6).
T1 sequence: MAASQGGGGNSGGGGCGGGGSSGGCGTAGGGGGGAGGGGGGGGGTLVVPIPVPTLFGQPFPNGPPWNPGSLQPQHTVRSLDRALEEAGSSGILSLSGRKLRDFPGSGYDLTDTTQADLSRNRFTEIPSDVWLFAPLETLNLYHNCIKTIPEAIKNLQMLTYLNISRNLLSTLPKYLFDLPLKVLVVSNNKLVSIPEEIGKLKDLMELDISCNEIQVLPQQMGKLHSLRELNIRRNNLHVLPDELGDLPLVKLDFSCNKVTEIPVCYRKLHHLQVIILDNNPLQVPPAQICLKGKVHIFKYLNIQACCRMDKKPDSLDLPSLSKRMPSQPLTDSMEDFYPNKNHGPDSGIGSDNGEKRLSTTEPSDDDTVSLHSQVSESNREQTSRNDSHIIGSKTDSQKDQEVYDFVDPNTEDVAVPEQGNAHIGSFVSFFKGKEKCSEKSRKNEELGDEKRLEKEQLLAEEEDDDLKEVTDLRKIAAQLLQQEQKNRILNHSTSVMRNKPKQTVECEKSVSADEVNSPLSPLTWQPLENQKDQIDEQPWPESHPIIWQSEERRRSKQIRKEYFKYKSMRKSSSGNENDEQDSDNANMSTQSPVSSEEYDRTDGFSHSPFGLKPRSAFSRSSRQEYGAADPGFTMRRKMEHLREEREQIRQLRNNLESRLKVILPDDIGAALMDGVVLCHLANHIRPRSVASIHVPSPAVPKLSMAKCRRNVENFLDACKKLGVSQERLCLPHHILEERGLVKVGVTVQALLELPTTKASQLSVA

The target of experiment [2] is T2, FLAG-ARHGAP39 Y81A (human) (UniProt Q9C0H5).
T2 sequence: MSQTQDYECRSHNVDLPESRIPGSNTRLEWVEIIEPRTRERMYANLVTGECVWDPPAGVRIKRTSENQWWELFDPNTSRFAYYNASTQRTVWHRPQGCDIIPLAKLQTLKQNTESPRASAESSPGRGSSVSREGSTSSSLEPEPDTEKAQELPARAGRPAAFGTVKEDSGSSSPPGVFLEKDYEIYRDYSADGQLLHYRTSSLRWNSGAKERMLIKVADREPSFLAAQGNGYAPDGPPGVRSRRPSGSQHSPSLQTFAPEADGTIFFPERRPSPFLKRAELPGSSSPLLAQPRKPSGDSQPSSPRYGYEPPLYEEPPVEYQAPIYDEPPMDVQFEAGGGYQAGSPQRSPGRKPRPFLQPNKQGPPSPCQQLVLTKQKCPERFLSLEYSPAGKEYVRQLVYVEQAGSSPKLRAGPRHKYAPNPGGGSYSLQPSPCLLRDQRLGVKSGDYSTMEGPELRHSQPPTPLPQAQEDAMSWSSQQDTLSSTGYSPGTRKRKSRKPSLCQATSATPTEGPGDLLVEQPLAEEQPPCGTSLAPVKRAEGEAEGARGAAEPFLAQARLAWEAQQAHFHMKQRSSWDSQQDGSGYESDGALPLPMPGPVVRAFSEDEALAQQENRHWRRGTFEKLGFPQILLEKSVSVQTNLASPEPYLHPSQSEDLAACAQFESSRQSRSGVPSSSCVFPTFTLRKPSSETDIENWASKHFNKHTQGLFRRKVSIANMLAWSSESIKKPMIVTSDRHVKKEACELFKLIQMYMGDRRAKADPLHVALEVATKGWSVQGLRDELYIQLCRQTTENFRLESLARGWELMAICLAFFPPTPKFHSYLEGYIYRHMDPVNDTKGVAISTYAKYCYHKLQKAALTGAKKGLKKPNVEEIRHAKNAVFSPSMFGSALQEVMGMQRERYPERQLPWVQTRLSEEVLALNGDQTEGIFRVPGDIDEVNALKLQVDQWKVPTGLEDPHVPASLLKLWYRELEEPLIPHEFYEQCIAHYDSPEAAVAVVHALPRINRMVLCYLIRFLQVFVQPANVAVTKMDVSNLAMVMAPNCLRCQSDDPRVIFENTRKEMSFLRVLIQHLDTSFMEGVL

The target of experiment [3] is FLAG-ARHGAP39 wild type (human) (UniProt Q9C0H5).
For experiment [4], the target named is YFP-PLEKHG4B full-length (human) (UniProt Q96PX9).
Experiment [5] deals with T3, FLAG-LRCH4 (human) (UniProt O75427).
T3 sequence: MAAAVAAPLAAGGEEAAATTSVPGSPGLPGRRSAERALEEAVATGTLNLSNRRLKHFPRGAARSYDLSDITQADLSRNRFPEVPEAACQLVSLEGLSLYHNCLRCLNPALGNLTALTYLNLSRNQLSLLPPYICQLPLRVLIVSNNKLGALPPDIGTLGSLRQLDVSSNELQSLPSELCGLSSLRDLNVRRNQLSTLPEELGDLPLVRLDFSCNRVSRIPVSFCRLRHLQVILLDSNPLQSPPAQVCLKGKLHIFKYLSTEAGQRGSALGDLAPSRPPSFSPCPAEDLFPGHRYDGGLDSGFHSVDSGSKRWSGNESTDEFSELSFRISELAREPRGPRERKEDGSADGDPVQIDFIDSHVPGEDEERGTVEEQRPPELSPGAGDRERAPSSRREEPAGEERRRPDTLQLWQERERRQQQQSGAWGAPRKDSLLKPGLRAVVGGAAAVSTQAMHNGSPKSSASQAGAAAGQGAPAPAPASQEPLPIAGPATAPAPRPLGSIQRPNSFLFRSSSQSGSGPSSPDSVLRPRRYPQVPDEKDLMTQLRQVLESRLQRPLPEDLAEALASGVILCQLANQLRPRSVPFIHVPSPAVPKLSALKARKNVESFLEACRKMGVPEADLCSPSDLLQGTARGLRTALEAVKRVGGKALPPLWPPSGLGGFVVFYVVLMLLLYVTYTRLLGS

Experiment [6] has as its target T4, FLAG-LRCH1 (human) (UniProt Q9Y2L9).
T4 sequence: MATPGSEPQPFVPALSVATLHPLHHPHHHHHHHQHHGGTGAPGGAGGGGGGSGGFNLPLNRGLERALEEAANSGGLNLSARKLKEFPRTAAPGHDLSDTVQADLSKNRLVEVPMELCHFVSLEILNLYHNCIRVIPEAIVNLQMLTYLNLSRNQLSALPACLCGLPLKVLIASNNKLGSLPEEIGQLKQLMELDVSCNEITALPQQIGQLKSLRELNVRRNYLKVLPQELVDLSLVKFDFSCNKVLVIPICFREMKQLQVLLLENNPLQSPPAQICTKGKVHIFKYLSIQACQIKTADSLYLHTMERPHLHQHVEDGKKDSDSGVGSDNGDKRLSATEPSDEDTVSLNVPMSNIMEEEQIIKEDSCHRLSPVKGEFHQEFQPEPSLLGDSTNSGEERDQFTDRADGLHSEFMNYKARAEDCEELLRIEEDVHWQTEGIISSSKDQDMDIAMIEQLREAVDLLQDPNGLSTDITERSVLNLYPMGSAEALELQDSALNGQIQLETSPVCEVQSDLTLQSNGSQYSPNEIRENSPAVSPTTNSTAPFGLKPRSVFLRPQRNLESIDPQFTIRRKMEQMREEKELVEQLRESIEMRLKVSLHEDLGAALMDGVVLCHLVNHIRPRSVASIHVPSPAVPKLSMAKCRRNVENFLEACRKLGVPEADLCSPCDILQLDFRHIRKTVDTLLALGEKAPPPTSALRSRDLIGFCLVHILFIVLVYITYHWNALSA

No constants are given. Whether binding was seen depends on the method and setting. Binding seen in cells or lysates may run through a third protein. Some binding calls cover weakened binding; strength is not graded here. For some of these results: Where a sequence is shown, tags or fusion partners need not be part of it.

Turning to YFP-DOCK8 (from UniProt Q8NF50 1-2099), the binding result in experiment [1] is recorded as “binds”.

On to YFP-PEAK1 (from UniProt Q9H792 1-1746), for which the figures for the binding entry in experiment [2] and in experiment [3] were “no binding” and “binds”, respectively.

For “FLAG-ARHGEF12 full-length (from UniProt Q9NZN5 1-1544)”, in experiment [4], the binding result is listed as “binds”.

For “mCherry-DOCK8 (from UniProt Q8NF50 1-2099)”, the binding entry in experiment [5] was “binds”.

Consider “FLAG-ARHGEF11 full-length (from UniProt O15085 1-1522)”, for which the binding entry in experiment [4] is given as “binds”.

Consider “mCherry-DOCK6 (from UniProt Q96HP0 1-2047)”, for which, in experiment [5], the binding entry was “binds”.

Turning to “mCherry-DOCK7 (from UniProt Q96N67 1-2140)”, the binding entry in experiment [6], in experiment [5] and in experiment [1] was “binds” throughout.
